Experimental data from patent EP0167459B1, “2-Amino oxazolines and process for their preparation” (priority 1984, dated 1986).
At least one structure is not confirmed: it was looked up by name or label, or the drawing left a doubt. Some results were stated once for a whole list of compounds, not compound by compound.

Assays:
récepteurs α₂ = test: Guppy darkening test (darkening provoked by meclofenoxate); format: in vivo; conditions: for noircissement spontané: α₂ antagonist type activity, comparable to yohimbine; for noircissement provoqué par le méclofénoxate: α₂ agonist type activity, comparable to clonidine
RECEPTEURS α2 = test: Affinity for the α2 receptor in vitro; format: binding; conditions: read-out: AFFINITE RECEPTEURS α2 IN VITRO IC […]; read-out: […] […] α2 IN VITRO IC 50 M
[1] = Cardiovascular activity in the anaesthetised dog; format: in vivo, chien
From the text: Les 2-amino-oxazolines selon l'invention se caractérisent par des propriétés pharmacologiques intéressantes, et notamment par des propriétés anti-dépressives, hypertensives et analeptiques vasculaires. Elles agissent sur les récepteurs α₂, soit par un phénomène de bloquage, soit par un effet agoniste. […] Cet effet s'apparente donc à celui de la Yohimbine.
Chez le chien anesthésié, l'injection des produits selon l'invention provoque une hypertension durable, à des doses relativement faibles, allant de 0,05 à 1 mg/kg I.V.

Structure (SMILES) | noircissement spontané (récepteurs α₂) | IC50 (RECEPTEURS α2) [nM] | activité vasomotrice (vasodilatation ou vasoconstriction primaire) [1] | vasoconstriction de l'artère mésentérique à la dopamine ([1]; effect of α₂ adrenergic type) | noircissement provoqué par le méclofénoxate (récepteurs α₂)
NC1=NC(COc2ccccc2)CO1 (racemic) [ex. 6, 4-phénoxy-méthyl 2-amino-oxazoline] | provoquent spontanément le noircissement | 150 | vasodilatation primaire | effet antagoniste | 
COc1ccc(CC2COC(N)=N2)c(Cl)c1Cl (racemic) [compound 19] | provoquent spontanément le noircissement |  |  |  | 
NC1=NC(Cc2ccccc2Cl)CO1 (single isomer, unassigned) [ex. 23] |  |  |  |  | antagonisent le noircissement provoqué par le méclofénoxate
NC1=NC(Cc2ccccc2Cl)CO1 (racemic) [ex. 11] |  |  |  |  | antagonisent le noircissement provoqué par le méclofénoxate
